# Results published in patent US8217085B2 (priority 2009, dated 2012).
# The source gives many values for each of these; only a part stands here.
# System: ATCC strain 43300 Staphylococcus aureus
# Test: Survival of MRSA in MSM and oxacillin, simulated course of treatment, 6 μg/ml oxacillin added daily (Example 3)
structure (smiles),measurement,setting,value
"CS(C)(=O)=O [MSM, methylsulfonylmethane]",survival,"5% MSM, 6 μg/ml oxacillin added daily, 48 hours",7.0 Log cfu/ml
same,survival,"5% MSM, 6 μg/ml oxacillin added daily, 7 days",7.9 Log cfu/ml
same,survival,"8% MSM, 6 μg/ml oxacillin added daily, 48 hours",4.0 Log cfu/ml
same,survival,"8% MSM, 6 μg/ml oxacillin added daily, 7 days",7.6 Log cfu/ml
same,survival,"10% MSM, 6 μg/ml oxacillin added daily, 48 hours",4.6 Log cfu/ml
same,survival,"10% MSM, 6 μg/ml oxacillin added daily, 7 days",7.2 Log cfu/ml
same,survival,"12% MSM, 6 μg/ml oxacillin added daily, 48 hours",3.8 Log cfu/ml
same,survival,"12% MSM, 6 μg/ml oxacillin added daily, 7 days",7.1 Log cfu/ml
same,survival,"13% MSM, 6 μg/ml oxacillin added daily, 48 hours",3.8 Log cfu/ml
same,survival,"13% MSM, 6 μg/ml oxacillin added daily, 7 days",7.2 Log cfu/ml
same,survival,"14% MSM, 6 μg/ml oxacillin added daily, 48 hours",4.0 Log cfu/ml
same,survival,"14% MSM, 6 μg/ml oxacillin added daily, 7 days",7.0 Log cfu/ml
same,survival,"15% MSM, 6 μg/ml oxacillin added daily, 48 hours",4.1 Log cfu/ml
same,survival,"15% MSM, 6 μg/ml oxacillin added daily, 7 days",6.9 Log cfu/ml
same,survival,"16% MSM, 6 μg/ml oxacillin added daily, 48 hours",5.3 Log cfu/ml
same,survival,"16% MSM, 6 μg/ml oxacillin added daily, 7 days",1.0 Log cfu/ml
same,survival,"16% MSM, 6 μg/ml oxacillin added each day, day 7",no surviving bacteria
